Reference: publication PMC12431657, “Discovery and mechanistic insights of dibenzoylmethane as a broad spectrum inhibitor of coronavirus” (PLOS Pathogens, 2025)
Structures can show the parent of a compound that is named as a salt. Where two headings read alike, the source gives them in different places. Screen size: about 3,300 compounds; about 60 (2%) showed an effect of 50% or more. This is one part of the list. Peptide text beside a SMILES is read from it.

Tested on: HCoV-OC43
Set-up: species or system RD; HTS, protection from HCoV-OC43 induced cell death, luminescent cell viability (CellCounting-Lite 2.0), inhibition rate
Conditions: 24 h post infection, 1 h compound pre-incubation, 10 µM, inhibitor

Row | SMILES | OC43 Inhibition rate [%] | OC43 Inhibition rate (OC43 Inhibition rate, 24 h) [%]
1 | COc1ccc2c(c1OC)CN1CCc3cc4c(cc3C1=C2)OCO4 [Dihydroberberine] | 0.6 | 
2 | C/C=C/SC[C@H](N)C(=O)O [S-1-Propenyl-L-cysteine] | 2.1 | 
3 | O=c1cccc2n1C[C@@H]1CNC[C@H]2C1 [Cytisinicline] | -0.4 | 
4 | CC/C=C\C/C=C\C/C=C\CCCCCCCC(=O)O [α-Linolenic acid] | 1.6 | 
5 | C[C@@H]1O[C@@H](O[C@H]2C(=O)c3c(O)cc(O)cc3O[C@@H]2c2ccc(O)c(O)c2)[C@H](O)[C@H](O)[C@H]1O [Astilbin] | -0.7 | 
6 | Cc1ccc(C(C)C)c(O)c1 [Thymol] | 2.3 | 
7 | NC[C@H]1O[C@H](O[C@H]2[C@H](O)[C@@H](O[C@H]3O[C@H](CO)[C@@H](O)[C@H](N)[C@H]3O)[C@H](N)C[C@@H]2N)[C@H](N)[C@@H](O)[C@@H]1O [Bekanamycin] | 6.3 | 
8 | COc1cc2c(cc1OC)-c1cc3ccc(OC)c(OC)c3c[n+]1CC2 [Palmatine (chloride)] |  | -0.5
9 | C=CC(C)(O)CCC=C(C)C (stereo not shown) [Linalool] | 0.3 | 
10 | COc1cc(/C=C/CO)ccc1O[C@@H]1O[C@H](CO)[C@@H](O)[C@H](O)[C@H]1O [Coniferin] | -1.6 | 
11 | O=C(O)/C=C(\CC(=O)O)C(=O)O [trans-Aconitic acid] | -0.3 | 
12 | Oc1cc(O)cc(/C=C/c2ccc(O)c(O)c2)c1 [Piceatannol] | -0.2 | 
13 | CC[C@@]1(O)C(=O)OCc2c1cc1n(c2=O)Cc2cc3c(CN(C)C)c(O)ccc3nc2-1 [Topotecan (Hydrochloride)] | -8.4 | 
14 | CCCCCCCC/C=C\CCCCCCCC(=O)O [Sodium oleate] |  | -1.8
15 | O=C(O)c1ccccc1O [Salicylic acid] |  | -0.7
16 | O=Cc1c[nH]c2cccc(O)c12 [4-Hydroxy-1H-indole-3-carbaldehyde] | -0.2 | 
17 | C=CCSC[C@H](NC(=O)CC[C@H](N)C(=O)O)C(=O)O [γ-Glutamyl-S-allylcysteine] | 4.3 | 
18 | O=C1NCN(c2ccccc2)C12CCN(CCCOc1ccc(F)cc1)CC2 [Spiramide] | 69.6 | 
19 | CC[C@]12CCCN3CCc4c(n(c5ccccc45)[C@@](O)(C(=O)OC)C1)[C@@H]32 [Vincamine] | -0.1 | 
20 | CC(CC(=O)C[C@@H](C)[C@H]1CC(=O)[C@@]2(C)C3=C(C(=O)C[C@]12C)[C@@]1(C)CCC(=O)C(C)(C)[C@@H]1C[C@@H]3O)C(=O)O (stereo partly shown) [Ganoderic acid D] | 0 | 
21 | CNCC(O)c1ccc(O)cc1 (stereo not shown) [Synephrine (hydrochloride)] |  | 0.4
22 | NC(N)=NCCCC[C@H](N)C(=O)O [H-HomoArg-OH.HCl] | 1.2 | 
23 | O=C(CCCCCCCCc1ccc(O)c(O)c1)c1c(O)cccc1O [Malabaricone C] | 12.2 | 

Entries above with nitrogen in an aromatic ring (5):
Row | SMILES | OC43 Inhibition rate [%] | OC43 Inhibition rate (OC43 Inhibition rate, 24 h) [%]
3 | O=c1cccc2n1C[C@@H]1CNC[C@H]2C1 [Cytisinicline] | -0.4 | 
8 | COc1cc2c(cc1OC)-c1cc3ccc(OC)c(OC)c3c[n+]1CC2 [Palmatine (chloride)] |  | -0.5
13 | CC[C@@]1(O)C(=O)OCc2c1cc1n(c2=O)Cc2cc3c(CN(C)C)c(O)ccc3nc2-1 [Topotecan (Hydrochloride)] | -8.4 | 
16 | O=Cc1c[nH]c2cccc(O)c12 [4-Hydroxy-1H-indole-3-carbaldehyde] | -0.2 | 
19 | CC[C@]12CCCN3CCc4c(n(c5ccccc45)[C@@](O)(C(=O)OC)C1)[C@@H]32 [Vincamine] | -0.1 | 

More structures.

Row | SMILES | OC43 Inhibition rate [%] | OC43 Inhibition rate (OC43 Inhibition rate, 24 h) [%]
24 | CNC[C@@H]1CC[C@@H](N)[C@@H](O[C@H]2[C@H](O)[C@@H](O[C@H]3OC[C@](C)(O)[C@H](NC)[C@H]3O)[C@H](N)C[C@@H]2N)O1 [Micronomicin (sulfate)] | -0.4 | 
25 | CC(=O)O[C@H](CC(=O)[O-])C[N+](C)(C)C [Acetyl-L-carnitine (hydrochloride)] | 1.3 | 
26 | OC1COC(O)CO1 (stereo not shown) [1,4-Dioxane-2,5-diol] | 1.3 | 
27 | O=c1[nH]cc([C@@H]2O[C@H](CO)[C@@H](O)[C@H]2O)c(=O)[nH]1 [Pseudouridine] | 0.3 | 
28 | O=Cc1cc(O)ccc1O [2,5-Dihydroxybenzaldehyde] | -5 | 
29 | Cc1cc(O)c(C)c2c1O[C@](C)(CCC[C@H](C)CCC[C@H](C)CCCC(C)C)CC2 [β-Tocopherol] | 1.6 | 
30 | CC(=O)[C@H]1CC[C@H]2[C@@H]3C[C@H](O)[C@H]4C[C@@H](O)CC[C@]4(C)[C@H]3CC[C@]12C [5α-Pregnane-3β,6α-diol-20-one] | 0.1 | 
31 | O=c1cc(O)cc(/C=C/c2ccc(O)c(O)c2)o1 [Hispidin] | 0.1 | 
32 | COc1c(O)cc(O)c2c(=O)cc(-c3ccccc3)oc12 [Wogonin] | 5.8 | 
33 | C[C@@H](O)CC(=O)O [(R)-3-Hydroxybutanoic acid (sodium)] |  | 3.4
34 | CCCCCCCCCCCC(=O)O [Lauric acid] | 4 | 
35 | Oc1cc(O)cc(/C=C/c2c(O)cccc2O)c1 [Gnetol] | -1 | 
36 | COC(=O)/C=C/c1ccc(O)c(O)c1 [Methyl caffeate] | 3 | 
37 | CC(C)C[C@H](NC(=O)[C@H](C)N)C(=O)O [L-Alanyl-L-leucine] (H-Ala-Leu-OH) | -0.2 | 
38 | COc1c(O)c(=O)n2c3ccccc3c3ccnc1c32 [Nigakinone] | 6.4 | 
39 | C[C@@H]1CC[C@]2(C(=O)O[C@@H]3O[C@H](CO)[C@@H](O)[C@H](O)[C@H]3O)CC[C@]3(C)C(=CC[C@@H]4[C@@]5(C)C[C@@H](O)[C@H](O)C(C)(C)[C@@H]5CC[C@]43C)[C@@H]2[C@]1(C)O [Rosamultin] | 1 | 
40 | O=c1c(O[C@@H]2O[C@H](CO)[C@@H](O)[C@H](O)[C@H]2O[C@@H]2O[C@H](CO)[C@@H](O)[C@H](O)[C@H]2O)c(-c2ccc(O)c(O)c2)oc2cc(O)cc(O)c12 [Baimaside] | 0.7 | 
41 | COc1ccc(-c2oc3c(CC=C(C)C)c(O)cc(O)c3c(=O)c2O)cc1 [Icaritin] | 0.1 | 
42 | O=c1cc(-c2ccccc2)oc2ccc(O)cc12 [6-Hydroxyflavone] | 7.7 | 
43 | O=C(O)c1cc(O)cc(O)c1 [3,5-Dihydroxybenzoic acid] | -1.1 | 
44 | Oc1cc(O)c2c(c1)OC(c1ccc(O)c(O)c1)C(O)C2O (stereo not shown) [Leucocyanidin] | 0.2 | 
45 | NCCCCC(N)C(=O)O (racemic) [DL-Lysine] | -8.8 | 
46 | C[C@H]1CC[C@]2(NC1)O[C@H]1C[C@H]3[C@@H]4CC[C@H]5C[C@@H](O)CC[C@]5(C)[C@H]4CC[C@]3(C)[C@H]1[C@@H]2C [Tomatidine] |  | 4.3
